Experimental findings from PubChem BioAssay AID192 (DTP/NCI, 2004) are described below.

The list does not hold the whole screen: it is rich in T/C values a quarter to a half above the control, in often repeated tests (any T/C) and in doses without a T/C. Other doses and runs of a compound stand elsewhere. T/C gives the treated animals as a percentage of the vehicle group. Some entries give survivors of the animals treated and no T/C: the source holds a T/C of zero for them, seemingly a mark for toxic or unscored doses. Some survivor counts are full or nearly so, which does not show that the dose was tolerated: survival well below the control is almost never listed, so the zero probably covers shortened survival too. Survivors were counted at the toxicity check, usually on the fifth day, unless a day is given; later deaths do not show. Schedule codes are those of the source, read here as Q, the interval in days (D) or hours (H), X, the number of doses. Some entries hold several experiments; the values are given in rising order. Marks such as (2×) give the number of equal values in this list. For survival time, this PubChem deposit counts one and a half times the control or more as active, and values a quarter to a half above the control carry no call in these data; other NCI protocols may use other cut-offs. Some T/C values are followed by the survivors on the day toxicity was checked, most often the fifth; where none is given, no animal had died by that day.

The assay concerns BDF1 mice, B16 melanoma ip, median survival T/C. In words: NCI In Vivo Anticancer Drug Screen. Data for tumor model B16 Melanoma (intraperitoneal) in B6D2F1 (BDF1) mice. Particulars: T/C endpoint: median survival time, higher T/C = longer survival. The gist of the method: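 Antitumor activity is assessed in mice bearing a transplanted tumor, with survival or tumor size compared against vehicle-dosed controls and expressed as T/C.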

Setting [1] is: dose: 200.0 mg/kg/injection, schedule: Q01DX009 (ip), vehicle: Klucel (hydroxypropylcellulose) (HPC).
Setting [2] is: dose: 100.0 mg/kg/injection, schedule: Q01DX009 (ip), vehicle: Klucel (hydroxypropylcellulose) (HPC).
Setting [3] is: dose: 400.0 mg/kg/injection, schedule: Q01DX009 (ip), vehicle: Klucel (hydroxypropylcellulose) (HPC).
The mark [4] stands for this setting: dose: 25.0 mg/kg/injection, schedule: Q01DX009 (ip), vehicle: Klucel (hydroxypropylcellulose) (HPC).
Setting [5] is: dose: 50.0 mg/kg/injection, schedule: Q01DX009 (ip), vehicle: Klucel (hydroxypropylcellulose) (HPC).
Setting [6] is: dose: 12.5 mg/kg/injection, schedule: Q01DX009 (ip), vehicle: saline with Tween-80.
[7] abbreviates: dose: 100.0 mg/kg/injection, schedule: Q01DX009 (ip), vehicle: saline.
Setting [8] is: dose: 200.0 mg/kg/injection, schedule: Q01DX009 (ip), vehicle: saline.
The mark [9] stands for this setting: dose: 8.0 mg/kg/injection, schedule: Q01DX009 (ip), vehicle: saline.
[10] abbreviates: dose: 50.0 mg/kg/injection, schedule: Q01DX009 (ip), vehicle: saline with Tween-80.
The mark [11] stands for this setting: dose: 100.0 mg/kg/injection, schedule: Q01DX009 (ip), vehicle: saline with Tween-80.
Where [12] appears, read: dose: 200.0 mg/kg/injection, schedule: Q01DX009 (ip), vehicle: saline with Tween-80.

For the compound `Cn1ccc(=Nc2ccc(NC(=O)c3ccc(N=c4ccn(C)c5ccc([N+](=O)[O-])cc45)cc3)cc2)cc1`, the survivor count runs as follows: (dose: 50.0 mg/kg/injection, schedule: Q01DX009 (ip), vehicle: other) 10 of 10; (dose: 100.0 mg/kg/injection, schedule: Q01DX009 (ip), vehicle: other) 8 of 10.
On to `CCCCCCCCCCCCCCCC(=O)NNC(C)C`, for which, under setting [1], the survivor count was 10 of 10.
`CCOc1ccc(/C=N\N=C\c2ccc(OCC)cc2)cc1`: the survivor count was 10 of 10 under setting [2]; 9 of 10 and 10 of 10 under setting [3].
With `Cc1c2cccc(F)c2c[n+]2ccccc12`, the T/C under setting [4] was 128 % of control. Moreover, the survivor count under setting [5] is 5 of 10 and the survivor count under setting [2] is listed as 0 of 10.
With `O=C(C=C(C(F)(F)F)C(F)(F)F)c1cccc(S(=O)(=O)F)c1`, the T/C is, setting by setting: (dose: 3.13 mg/kg/injection, schedule: Q04DX003 (ip), vehicle: saline) 130 % of control; (dose: 6.25 mg/kg/injection, schedule: Q04DX003 (ip), vehicle: saline) 128 % of control; (dose: 12.5 mg/kg/injection, schedule: Q04DX003 (ip), vehicle: saline) 141 % of control. Moreover, the survivor count under setting [6] is on record as 10 of 10.
For `CC(C)CNN(CC(C)C)C(N)=O`, where the note is “dose: 400.0 mg/kg/injection, schedule: Q01DX009 (ip), vehicle: saline with Tween-80”, the survivor count is reported as 3 of 10.
As to `CC1C=NNC1=O` (centres undefined), the T/C (dose: 266.0 mg/kg/injection, schedule: Q01DX009 (ip), vehicle: saline with Tween-80) is 144 % of control. The survivor count (dose: 600.0 mg/kg/injection, schedule: Q01DX009 (ip), vehicle: saline with Tween-80) was 10 of 10.
With `CC(C)c1ccc(NC(=O)NC2CCCCC2)cc1`, the survivor count under setting [2] was 5 of 6, the survivor count under setting [1] is on record as 6 of 6 and the survivor count under setting [3] is listed as 3 of 6.
Take `CN(C)c1nc(N)nc(Nc2ccc(Br)cc2)c1N=O`: under setting [2], the T/C is 135 % of control. The survivor count under setting [3] is given as 5 of 10.
`[I][Ga]([I])[I]`: the survivor count was 10 of 10 (dose: 50.0 mg/kg/injection, schedule: Q01DX009 (ip), vehicle: saline) and 10 of 10 under setting [7].
Consider `CCC1OCCN1C(C)C` (centres undefined), for which the survivor count under setting [7] is listed as 10 of 10 and the survivor count under setting [8] is on record as 10 of 10.
As for `CN(C)/N=C\c1ccccc1Cl`, where the note is “dose: 200.0 mg/kg/injection, schedule: Q04DX003 (ip), vehicle: saline with Tween-80”, the survivor count is given as 10 of 10.
In the case of `CC[C@H]1CN2CCc3cc(OC)c(OC)cc3[C@@H]2C[C@@H]1C[C@H]1NCCc2cc(O)c(OC)cc21`, the T/C is 127 % of control (dose: 2.0 mg/kg/injection, schedule: Q01DX009 (ip), vehicle: saline); 130 % of control (dose: 4.0 mg/kg/injection, schedule: Q01DX009 (ip), vehicle: saline + alcohol); 141 % of control [9 of 10 alive] (dose: 4.0 mg/kg/injection, schedule: Q01DX009 (ip), vehicle: saline); 130 and 138 % of control [9 of 10 alive] under setting [9]; 137 % of control (dose: 64.0 mg/kg/injection, schedule: Q04DX003 (ip), vehicle: alkali diluted with saline). Besides, the survivor count runs as follows: under setting [9], 10 of 10; (dose: 16.0 mg/kg/injection, schedule: Q01DX009 (ip), vehicle: saline + alcohol) 10 of 10; (dose: 16.0 mg/kg/injection, schedule: Q01DX009 (ip), vehicle: saline) 6 of 10 and 10 of 10 (2×); (dose: 32.0 mg/kg/injection, schedule: Q01DX009 (ip), vehicle: saline) 3 of 10; (dose: 128.0 mg/kg/injection, schedule: Q04DX003 (ip), vehicle: alkali diluted with saline) 3 of 8.
Take `CC(C)[C@]12O[C@H]1[C@@H]1O[C@]13[C@]1(O[C@H]1C[C@H]1C4=C(C(=O)OC4)[C@@H](O)C[C@@]13C)[C@@H]2O`: for the setting “dose: 200.0 micrograms/kg/injection, schedule: Q01DX009 (ip), vehicle: saline + alcohol”, the T/C was 130 % of control. The survivor count by setting is: (dose: 400.0 micrograms/kg/injection, schedule: Q01DX009 (ip), vehicle: saline + alcohol) 10 of 10; (dose: 500.0 micrograms/kg/injection, schedule: Q01DX009 (ip), vehicle: saline + alcohol) 0 of 10.
On to `CCc1ccc(NC(=O)C(c2ccccc2)c2ccccc2)cc1`, for which the survivor count was 10 of 10 under setting [10], 10 of 10 under setting [2], 10 of 10 under setting [1] and 7 of 10 under setting [3].
With `Cc1ccccc1N1C(=O)CSC1=S`, the survivor count is 10 of 10 under setting [5], 10 of 10 under setting [2], 6 of 10 under setting [1] and 2 of 10 under setting [3].
As to `C=C(C)[C@H]1Cc2c(ccc3c2O[C@@H]2COc4cc(OC)c(OC)cc4[C@@H]2C3=O)O1`, the survivor count (dose: 16.0 mg/kg/injection, schedule: Q01DX009 (ip), vehicle: saline with Tween-80) is 7 of 10; the survivor count (dose: 32.0 mg/kg/injection, schedule: Q01DX009 (ip), vehicle: saline with Tween-80) was 0 of 10 and 1 of 10; the survivor count (dose: 64.0 mg/kg/injection, schedule: Q01DX009 (ip), vehicle: saline with Tween-80) is on record as 0 of 10.
Take `CN(C)CCCN=Cc1ccc(O)cc1O.CN(C)CCCN=Cc1ccc(O)cc1O.[Ni+2]`: where the note is “dose: 50.0 mg/kg/injection, schedule: Q04DX003 (ip), vehicle: saline with Tween-80”, the survivor count was 10 of 10.
As to `CCOc1ccc2c(ccc(/C=C\c3cc(C)c4cccnc4c3O)[n+]2C)c1`, the survivor count is, setting by setting: (dose: 25.0 mg/kg/injection, schedule: Q01DX009 (ip), vehicle: saline with Tween-80) 3 of 10; under setting [10], 4 of 10.
Take `CCCCCCCCCCCCCCCCOc1ccccc1C(C)=O`: the survivor count runs as follows: under setting [11], 10 of 10; under setting [12], 10 of 10.
As for `CC(=O)[C@@]1(O)CC[C@H]2[C@@H]3C[C@H](C)C4=CC(=O)C=C[C@]4(C)[C@@]3(F)[C@@H](O)C[C@@]21C`, the survivor count (dose: 12.0 mg/kg/injection, schedule: Q01DX009 (sc), vehicle: steroid suspending solution) is 6 of 6.
Regarding `O=C(O)C1CC(c2ccccc2)=NN1c1ccccc1` (centres undefined), where the note is “dose: 50.0 mg/kg/injection, schedule: Q01DX009 (ip), vehicle: water”, the T/C was 126 % of control. The survivor count (dose: 400.0 mg/kg/injection, schedule: Q01DX009 (ip), vehicle: water) is recorded as 3 of 10.
`CCN1C(=O)CC2(CCN(C)CC2)C1=O`: the survivor count is given as 10 of 10 under setting [8] and 9 of 10 (dose: 400.0 mg/kg/injection, schedule: Q01DX009 (ip), vehicle: saline).
As to `CS(=O)(=O)OCCN(CCOS(C)(=O)=O)c1ccc(C=Nc2ccc3oc(=O)ccc3c2)cc1`, the survivor count (dose: 6.25 mg/kg/injection, schedule: Q01DX009 (ip), vehicle: Klucel (hydroxypropylcellulose) (HPC)) was 10 of 10; the survivor count (dose: 12.5 mg/kg/injection, schedule: Q01DX009 (ip), vehicle: Klucel (hydroxypropylcellulose) (HPC)) is listed as 10 of 10; the survivor count under setting [4] was 10 of 10; the survivor count under setting [5] was 10 of 10. Also, under setting [4], the T/C is 142 % of control.
In the case of `c1ccc2sc(SSN3CCOCC3)nc2c1`, the survivor count was 10 of 10 under setting [4], 9 of 10 under setting [5], 10 of 10 under setting [2] and 10 of 10 under setting [1].
For the compound `CC1=CC(=O)c2ccccc2C1=O`, the T/C by setting is: (dose: 3.12 mg/kg/injection, schedule: Q01DX009 (ip), vehicle: saline with Tween-80) 137 % of control; (dose: 6.25 mg/kg/injection, schedule: Q01DX009 (ip), vehicle: saline with Tween-80) 130 % of control; under setting [6], 131 % of control. Further, the survivor count is 8 of 10 under setting [10], 0 of 10 under setting [11] and 0 of 10 under setting [12].
